Data as given in publication PMC4023886.
These are yes or no findings as the source states them, for the method shown. In cells and extracts the contact can be indirect. Some binding calls cover weakened binding; strength is not graded here.

Amino acid sequences for entries named in this document (tags omitted).
UniProt P29590: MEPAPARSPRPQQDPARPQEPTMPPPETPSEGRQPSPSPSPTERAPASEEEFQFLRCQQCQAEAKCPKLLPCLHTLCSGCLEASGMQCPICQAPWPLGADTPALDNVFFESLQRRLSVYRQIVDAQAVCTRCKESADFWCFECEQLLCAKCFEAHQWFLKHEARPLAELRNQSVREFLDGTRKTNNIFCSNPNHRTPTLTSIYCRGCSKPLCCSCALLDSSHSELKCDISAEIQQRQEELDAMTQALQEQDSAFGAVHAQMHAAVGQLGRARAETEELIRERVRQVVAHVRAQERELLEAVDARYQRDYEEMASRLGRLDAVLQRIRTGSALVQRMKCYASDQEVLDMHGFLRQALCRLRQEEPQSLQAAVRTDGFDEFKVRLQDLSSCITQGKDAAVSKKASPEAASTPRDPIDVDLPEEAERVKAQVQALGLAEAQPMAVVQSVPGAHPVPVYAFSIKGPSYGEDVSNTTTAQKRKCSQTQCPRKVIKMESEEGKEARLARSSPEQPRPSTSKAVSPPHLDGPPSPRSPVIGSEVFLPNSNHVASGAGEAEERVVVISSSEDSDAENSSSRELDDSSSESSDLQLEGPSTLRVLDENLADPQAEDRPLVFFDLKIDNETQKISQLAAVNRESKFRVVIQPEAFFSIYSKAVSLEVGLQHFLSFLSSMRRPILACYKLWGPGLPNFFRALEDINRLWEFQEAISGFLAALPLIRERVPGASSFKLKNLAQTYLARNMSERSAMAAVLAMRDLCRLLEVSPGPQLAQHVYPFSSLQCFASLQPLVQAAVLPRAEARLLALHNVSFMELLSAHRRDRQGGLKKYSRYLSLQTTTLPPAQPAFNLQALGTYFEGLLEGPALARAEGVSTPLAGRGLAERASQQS
UniProt Q16665: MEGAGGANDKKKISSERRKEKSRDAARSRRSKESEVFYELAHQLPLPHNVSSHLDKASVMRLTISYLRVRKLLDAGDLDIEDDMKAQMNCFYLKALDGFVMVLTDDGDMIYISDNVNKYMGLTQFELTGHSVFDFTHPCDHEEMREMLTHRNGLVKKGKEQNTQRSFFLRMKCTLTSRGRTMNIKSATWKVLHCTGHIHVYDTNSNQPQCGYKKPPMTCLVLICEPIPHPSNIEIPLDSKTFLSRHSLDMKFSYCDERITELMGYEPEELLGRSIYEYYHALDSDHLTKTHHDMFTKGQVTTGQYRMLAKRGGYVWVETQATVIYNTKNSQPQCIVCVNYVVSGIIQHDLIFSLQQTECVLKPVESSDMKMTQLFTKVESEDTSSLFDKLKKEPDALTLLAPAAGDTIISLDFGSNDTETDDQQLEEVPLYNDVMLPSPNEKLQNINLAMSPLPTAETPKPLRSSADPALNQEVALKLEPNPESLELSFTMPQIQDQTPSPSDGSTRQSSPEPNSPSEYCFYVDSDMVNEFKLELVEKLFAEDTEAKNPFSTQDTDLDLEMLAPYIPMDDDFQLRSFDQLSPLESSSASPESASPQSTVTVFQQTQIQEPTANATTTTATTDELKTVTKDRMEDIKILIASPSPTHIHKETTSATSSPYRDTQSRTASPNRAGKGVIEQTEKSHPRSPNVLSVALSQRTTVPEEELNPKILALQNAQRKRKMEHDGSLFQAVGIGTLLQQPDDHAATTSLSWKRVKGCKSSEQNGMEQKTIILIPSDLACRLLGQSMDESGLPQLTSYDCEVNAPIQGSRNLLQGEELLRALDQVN

Molecular target: PML, endogenous in NB4 cells (human (endogenous in NB4)) (UniProt P29590)
Assay: co-IP; NB4 cells treated with CoCl2 (100 μM, 24 h), endogenous proteins; mild cross-linking with 0.4% formaldehyde (7 min at RT); lysis in CO-IP buffer (10 mM NaCl, 10 mM Tris-HCl pH 7.5, 5 mM MgCl2, 0.5% CHAPS), brief sonication; total lysates immunoprecipitated with PML antibody PG-M3

With “endogenous HIF-1α in NB4 cells (from UniProt Q16665 1-826)” the binding was “binds”.
